From publication doi:10.1101/2023.12.12.569033 come the findings set out here.

The chains behind the UniProt entries cited, without tags or fusion partners.
UniProt Q969M3: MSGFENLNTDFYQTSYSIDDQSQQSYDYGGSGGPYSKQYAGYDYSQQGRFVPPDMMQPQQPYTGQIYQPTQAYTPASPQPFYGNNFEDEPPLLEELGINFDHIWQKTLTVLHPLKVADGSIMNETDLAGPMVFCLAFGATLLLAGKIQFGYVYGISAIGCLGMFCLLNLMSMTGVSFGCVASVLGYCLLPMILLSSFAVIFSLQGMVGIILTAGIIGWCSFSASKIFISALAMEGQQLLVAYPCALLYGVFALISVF

Results are given in words; binding and its absence hold for the method and conditions named. In cells and extracts the contact can be indirect. These calls come from enrichment with a bait or labelling near it, and not all partners need be listed. Sequences can lack the tags named with a protein.

In the assay the target is T1, FLAG-GOT1A (Flag-GOLT1A), stably overexpressed in MCF10A cells (human) (UniProt Q6ZVE7).
T1 sequence: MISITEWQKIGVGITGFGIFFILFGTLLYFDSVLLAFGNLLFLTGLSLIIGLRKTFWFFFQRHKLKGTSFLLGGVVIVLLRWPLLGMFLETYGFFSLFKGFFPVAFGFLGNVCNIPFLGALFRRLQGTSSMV
Briefly: affinity purification with mass spectrometry.

For the substance “YIPF5, endogenous in MCF10A cells (from UniProt Q969M3 1-257)”, the binding entry was “binds”.
